Measurements taken from publication PMC7259758 (PLoS ONE, 2020).

Test system: triple-exon skipping of MDM2 pre-mRNA in SK-MEL-2/Luc-MDM2 cells
Experiment: TESLR (Triple Exon Skipping Luciferase Reporter) dose response
Settings: Homo sapiens, SK-MEL-2, 4 h, read-out: TESLR IC50 in inducing triple exon skipping

## CCc1cnn2c(NCc3ccc[n+]([O-])c3)cc(N3CCCC[C@H]3CCO)nc12 [dinaciclib]
  IC50: > 10 µM
